# Laboratory results as given in the supplement of paper PMC4604168 (melanoma cell lines).
# This is one part of the list. Many values rest on one well or one pass, so single values are uncertain.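 Cells were imaged in 1,536-well plates, and nuclei stained with an antibody against cleaved PARP were counted against all DNA-stained nuclei to give the apoptosis fraction. Screening doses were chosen to leave most cells alive, and resting and induced cleaved-PARP levels differ strongly between cell lines.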
# What was measured:
# Assay in all cases: cleaved PARP positive nuclei fraction relative to DMSO control; melanoma cells; higher = more apoptosis
# Conditions in all cases: library dose: low library concentration; 72 h
# 501Mel = test system: 501Mel
# A101D = test system: A101D
# A2058 = test system: A2058
# A375 = test system: A375
# C32 = test system: C32
# CBRC008 = test system: CBRC008 (line from a melanoma biopsy)
# CBRC013 = test system: CBRC013 (line from a melanoma biopsy)
# CBRC014 = test system: CBRC014 (line from a melanoma biopsy)
# CBRC016 = test system: CBRC016 (line from a melanoma biopsy)
# CBRC017 = test system: CBRC017 (line from a melanoma biopsy)
# COLO792 = test system: COLO792
# COLO800 = test system: COLO800
# COLO829 = test system: COLO829
# G361 = test system: G361
# IPC-298 = test system: IPC-298
# IST-MEL1 = test system: IST-MEL1
# LB2518-MEL = test system: LB2518-MEL
# LOXIMVI = test system: LOXIMVI
# MEL-HO = test system: MEL-HO
Compound,cleaved PARP positive nuclei fraction (501Mel) [%],cleaved PARP positive nuclei fraction (A101D) [%],cleaved PARP positive nuclei fraction (A2058) [%],cleaved PARP positive nuclei fraction (A375) [%],cleaved PARP positive nuclei fraction (C32) [%],cleaved PARP positive nuclei fraction (CBRC008) [%],cleaved PARP positive nuclei fraction (CBRC013) [%],cleaved PARP positive nuclei fraction (CBRC014) [%],cleaved PARP positive nuclei fraction (CBRC016) [%],cleaved PARP positive nuclei fraction (CBRC017) [%],cleaved PARP positive nuclei fraction (COLO792) [%],cleaved PARP positive nuclei fraction (COLO800) [%],cleaved PARP positive nuclei fraction (COLO829) [%],cleaved PARP positive nuclei fraction (G361) [%],cleaved PARP positive nuclei fraction (IPC-298) [%],cleaved PARP positive nuclei fraction (IST-MEL1) [%],cleaved PARP positive nuclei fraction (LB2518-MEL) [%],cleaved PARP positive nuclei fraction (LOXIMVI) [%],cleaved PARP positive nuclei fraction (MEL-HO) [%]
"NC(=O)c1ccc(N(C(N)=O)c2c(F)cccc2F)nc1-c1ccc(F)cc1F + COc1cc(Nc2ncc(F)c(Nc3ccc4c(n3)NC(=O)C(C)(C)O4)n2)cc(OC)c1OC [Tamatinib] (first compound 0.4 µM, partner dose 0.4 µM)",88.4,173,187,144,101,207,131,73.5,52.7,84.1,135,52.9,95.7,102,134,87.7,146,46.6,49.1
"C[C@@H](N)c1ccc(C(=O)Nc2ccnc3[nH]ccc23)cc1 + O=C(Nc1cccc(Cl)c1)Nc1ncc(CCNc2ncnc3ccsc23)s1 [SNS314] (first compound 0.4 µM, partner dose 0.0008 µM)",294,47.5,164,171,266,105,99.7,125,98.1,122,141,71.8,143,131,94.6,51,175,81.9,284
"Cn1cnc2c(F)c(Nc3ccc(Br)cc3Cl)c(C(=O)NOCCO)cc21 [selumetinib] + NCC(=O)Nc1ccc(-n2nc(C(F)(F)F)cc2-c2ccc3c(ccc4ccccc43)c2)cc1 [OSU03012] (first compound 0.015 µM, partner dose 1 µM)",342,35.4,38.7,3950,70.7,141,93.8,62.2,56.5,87.2,154,147,127,133,119,408,148,99.6,183
"CCN(CC)CCNC(=O)c1c(C)[nH]c(/C=C2\C(=O)Nc3ccc(F)cc32)c1C [sunitinib] + CN(C)S(=O)(=O)c1ccc2c(c1)/C(=C/c1cc3c([nH]1)CCCC3)C(=O)N2 [SU6656] (first compound 0.4 µM, partner dose 0.4 µM)",50.9,105,142,54.7,67.7,39.3,222,94.9,148,99,242,176,68.7,93.5,46.7,88.7,97.9,25.2,79.4
"CS(=O)(=O)c1ccc(C(=O)Nc2ccc(Cl)c(-c3ccccn3)c2)c(Cl)c1 [vismodegib] + NC(=O)Nc1cc(-c2cccc(F)c2)sc1C(=O)N[C@H]1CCCNC1 [AZD7762] (first compound 1 µM, partner dose 0.02 µM)",160,261,61.1,201,64.1,67.6,125,79.3,121,97.8,126,73.3,142,82.6,41.7,28.8,16.4,88.1,186
"Cn1sc(=O)n(Cc2ccccc2)c1=O + Cc1cc(N2CCOCC2)cc2[nH]c(-c3c(NC[C@@H](O)c4cccc(Cl)c4)cc[nH]c3=O)nc12 [BMS536924] (first compound 0.4 µM, partner dose 0.2 µM)",89.3,130,95.8,188,116,186,122,93.7,68.4,106,179,199,165,205,47.2,115,95.7,61.5,34.2
"CS(=O)(=O)c1ccc(C(=O)Nc2ccc(Cl)c(-c3ccccn3)c2)c(Cl)c1 [vismodegib] + C[C@@H]1CCN(C(=O)CC#N)C[C@@H]1N(C)c1ncnc2[nH]ccc12 [CP690550] (first compound 1 µM, partner dose 1 µM)",84.2,87.1,63.8,45.9,126,69,121,83.5,164,96.3,32.4,99.8,150,86.3,44.4,228,88.6,197,64.2
"CCN(CC)CCNC(=O)c1c(C)[nH]c(/C=C2\C(=O)Nc3ccc(F)cc32)c1C [sunitinib] + OCCn1cc(-c2cnc3nnn(Cc4ccc5ncccc5c4)c3n2)cn1 [PF04217903] (first compound 0.4 µM, partner dose 1 µM)",77.2,72.5,64.4,344,41.4,144,230,71.9,104,87.1,83.2,71.2,70.8,66.9,96.1,51.2,34.9,19.5,37.2
"C[C@]1(O)C[C@@H](c2nc(-c3ccc4ccc(-c5ccccc5)nc4c3)c3c(N)nccn32)C1 + COc1cc2c(Oc3ccc4[nH]c(C)cc4c3F)ncnc2cc1OCCCN1CCCC1 [cediranib] (first compound 0.4 µM, partner dose 0.4 µM)",60.9,285,114,106,109,71.8,77.4,88.6,40.1,82.5,125,252,78.4,50.3,91.2,88.9,90.9,127,76.8
"C[C@]1(O)C[C@@H](c2nc(-c3ccc4ccc(-c5ccccc5)nc4c3)c3c(N)nccn32)C1 + O=C(CCCCCCC(=O)Nc1ccccc1)NO [vorinostat] (first compound 0.4 µM, partner dose 0.08 µM)",322,76.6,230,75.9,118,127,132,91.6,109,136,47.7,229,203,121,48.5,321,132,166,148
"NC(=O)c1ccc(N(C(N)=O)c2c(F)cccc2F)nc1-c1ccc(F)cc1F + CC1(C)NC(=O)N(c2ccc([N+](=O)[O-])c(C(F)(F)F)c2)C1=O [nilutamide] (first compound 0.4 µM, partner dose 1 µM)",444,71.6,76.6,117,76.7,139,84.5,65.3,74.3,91,213,41.5,101,91.9,22,63.6,333,48.6,61.5
"CS(=O)(=O)c1ccc(C(=O)Nc2ccc(Cl)c(-c3ccccn3)c2)c(Cl)c1 [vismodegib] + Cc1cc(N2CCOCC2)cc2[nH]c(-c3c(NC[C@@H](O)c4cccc(Cl)c4)cc[nH]c3=O)nc12 [BMS536924] (first compound 1 µM, partner dose 0.2 µM)",84.3,74.4,121,202,65.3,556,166,91,158,101,109,216,33.7,120,25.5,268,220,139,75.5
"C[C@@H](N)c1ccc(C(=O)Nc2ccnc3[nH]ccc23)cc1 + Cc1ccc(NC(=O)c2cccc(N(C)C)c2)cc1NC(=O)c1ccc(O)cc1 [ZM336372] (first compound 0.4 µM, partner dose 2 µM)",86.9,87.1,83.2,221,338,35.7,148,118,129,110,147,56.8,58.6,82.2,209,106,99,120,88.4
"Cn1sc(=O)n(Cc2ccccc2)c1=O + C=CCn1c(=O)c2cnc(Nc3ccc(N4CCN(C)CC4)cc3)nc2n1-c1cccc(C(C)(C)O)n1 [MK1775] (first compound 0.4 µM, partner dose 0.02 µM)",59,99.7,87.4,83.7,47.1,63.2,88.1,116,36.2,123,63.4,107,89.9,88.7,178,41,103,40.4,248
"COc1ccc(C2=N[C@@H](c3ccc(Cl)cc3)[C@@H](c3ccc(Cl)cc3)N2C(=O)N2CCNC(=O)C2)c(OC(C)C)c1 [Nutlin-3] + O=C(Nc1cccc(Cl)c1)Nc1ncc(CCNc2ncnc3ccsc23)s1 [SNS314] (first compound 0.1 µM, partner dose 0.0008 µM)",84.8,97.8,47.7,107,222,78.1,167,88.5,80.8,117,27.3,37.6,98,63.8,90.6,194,87.6,497,135
"CN(c1ncccc1CNc1nc(Nc2ccc3c(c2)CC(=O)N3)ncc1C(F)(F)F)S(C)(=O)=O + NC(=O)Nc1cc(-c2cccc(F)c2)sc1C(=O)N[C@H]1CCCNC1 [AZD7762] (first compound 0.08 µM, partner dose 0.02 µM)",117,203,130,275,550,202,104,107,152,108,110,121,100,73.1,222,48.6,140,93.6,155
"CC1(C)CCC(c2ccc(Cl)cc2)=C(CN2CCN(c3ccc(C(=O)NS(=O)(=O)c4ccc(N[C@H](CCN5CCOCC5)CSc5ccccc5)c(S(=O)(=O)C(F)(F)F)c4)cc3)CC2)C1 + CC(C)(C)c1cnc(CSc2cnc(NC(=O)C3CCNCC3)s2)o1 [SNS-032] (first compound 0.4 µM, partner dose 0.01 µM)",232,129,77,106,412,701,660,271,980,325,593,128,126,72.3,135,133,126,80.1,72.7

# Record cards, as listed above. Order of values: cleaved PARP positive nuclei fraction (501Mel) [%]	cleaved PARP positive nuclei fraction (A101D) [%]	cleaved PARP positive nuclei fraction (A2058) [%]	cleaved PARP positive nuclei fraction (A375) [%]	cleaved PARP positive nuclei fraction (C32) [%]	cleaved PARP positive nuclei fraction (CBRC008) [%]	cleaved PARP positive nuclei fraction (CBRC013) [%]	cleaved PARP positive nuclei fraction (CBRC014) [%]	cleaved PARP positive nuclei fraction (CBRC016) [%]	cleaved PARP positive nuclei fraction (CBRC017) [%]	cleaved PARP positive nuclei fraction (COLO792) [%]	cleaved PARP positive nuclei fraction (COLO800) [%]	cleaved PARP positive nuclei fraction (COLO829) [%]	cleaved PARP positive nuclei fraction (G361) [%]	cleaved PARP positive nuclei fraction (IPC-298) [%]	cleaved PARP positive nuclei fraction (IST-MEL1) [%]	cleaved PARP positive nuclei fraction (LB2518-MEL) [%]	cleaved PARP positive nuclei fraction (LOXIMVI) [%]	cleaved PARP positive nuclei fraction (MEL-HO) [%]
# NC(=O)c1ccc(N(C(N)=O)c2c(F)cccc2F)nc1-c1ccc(F)cc1F + COc1cc(Nc2ncc(F)c(Nc3ccc4c(n3)NC(=O)C(C)(C)O4)n2)cc(OC)c1OC [Tamatinib] (first compound 0.4 µM, partner dose 0.4 µM) is listed as 88.4	173	187	144	101	207	131	73.5	52.7	84.1	135	52.9	95.7	102	134	87.7	146	46.6	49.1
# CN(c1ncccc1CNc1nc(Nc2ccc3c(c2)CC(=O)N3)ncc1C(F)(F)F)S(C)(=O)=O + NC(=O)Nc1cc(-c2cccc(F)c2)sc1C(=O)N[C@H]1CCCNC1 [AZD7762] (first compound 0.08 µM, partner dose 0.02 µM) is listed as 117	203	130	275	550	202	104	107	152	108	110	121	100	73.1	222	48.6	140	93.6	155
